# In patent US20060019314A1:
# Chains of the proteins cited; added tags and fusions are not shown. Lines headed by an entry give the natural chain unless they say otherwise; changes in a name come on top. A line that says so, or that is headed by a name, gives the form on record, which may keep a tag or linker.
# UniProt P98177: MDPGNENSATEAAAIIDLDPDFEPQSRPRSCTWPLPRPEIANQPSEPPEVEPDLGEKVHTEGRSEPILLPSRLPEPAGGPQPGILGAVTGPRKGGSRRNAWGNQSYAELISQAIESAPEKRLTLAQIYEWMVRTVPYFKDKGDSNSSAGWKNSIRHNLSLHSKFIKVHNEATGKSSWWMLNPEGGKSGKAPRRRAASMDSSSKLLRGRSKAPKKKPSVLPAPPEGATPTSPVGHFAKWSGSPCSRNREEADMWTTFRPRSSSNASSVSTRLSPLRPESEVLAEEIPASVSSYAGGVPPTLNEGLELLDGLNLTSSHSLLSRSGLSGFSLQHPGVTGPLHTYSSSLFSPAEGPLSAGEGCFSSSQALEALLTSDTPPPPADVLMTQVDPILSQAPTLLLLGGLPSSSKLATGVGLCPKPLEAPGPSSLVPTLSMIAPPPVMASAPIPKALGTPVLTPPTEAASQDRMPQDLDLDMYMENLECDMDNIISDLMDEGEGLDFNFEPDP
# HA-tagged FOXO4-TM (P98177, form named): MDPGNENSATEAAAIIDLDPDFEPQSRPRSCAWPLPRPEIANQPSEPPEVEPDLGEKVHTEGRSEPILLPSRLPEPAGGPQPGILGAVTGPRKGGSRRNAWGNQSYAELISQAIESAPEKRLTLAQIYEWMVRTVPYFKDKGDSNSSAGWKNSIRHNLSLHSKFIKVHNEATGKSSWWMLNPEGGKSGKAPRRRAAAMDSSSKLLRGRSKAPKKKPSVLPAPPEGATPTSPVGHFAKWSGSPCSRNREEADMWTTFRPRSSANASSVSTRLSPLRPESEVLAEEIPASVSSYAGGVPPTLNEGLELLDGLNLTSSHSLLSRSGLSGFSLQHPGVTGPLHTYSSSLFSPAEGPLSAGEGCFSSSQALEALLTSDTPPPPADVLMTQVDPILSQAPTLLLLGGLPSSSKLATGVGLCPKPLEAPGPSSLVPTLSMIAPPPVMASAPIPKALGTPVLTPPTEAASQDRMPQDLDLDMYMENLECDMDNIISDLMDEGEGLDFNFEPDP
# UniProt O43524: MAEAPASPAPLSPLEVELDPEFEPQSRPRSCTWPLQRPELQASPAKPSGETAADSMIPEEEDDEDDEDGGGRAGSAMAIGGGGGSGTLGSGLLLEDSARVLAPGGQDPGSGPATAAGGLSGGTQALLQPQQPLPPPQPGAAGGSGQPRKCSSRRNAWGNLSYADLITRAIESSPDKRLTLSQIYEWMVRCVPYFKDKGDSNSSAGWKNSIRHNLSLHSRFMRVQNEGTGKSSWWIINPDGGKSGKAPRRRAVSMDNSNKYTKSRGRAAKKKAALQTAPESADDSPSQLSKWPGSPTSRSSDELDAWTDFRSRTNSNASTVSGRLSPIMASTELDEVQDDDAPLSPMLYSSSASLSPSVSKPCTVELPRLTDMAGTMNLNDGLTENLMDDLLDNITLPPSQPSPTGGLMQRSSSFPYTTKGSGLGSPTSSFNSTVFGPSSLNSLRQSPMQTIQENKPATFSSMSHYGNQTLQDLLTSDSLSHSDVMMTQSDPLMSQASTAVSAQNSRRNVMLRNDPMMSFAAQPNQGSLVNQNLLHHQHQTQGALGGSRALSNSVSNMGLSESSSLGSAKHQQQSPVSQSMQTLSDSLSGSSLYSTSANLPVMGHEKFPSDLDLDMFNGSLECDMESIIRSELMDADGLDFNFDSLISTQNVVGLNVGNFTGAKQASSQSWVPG
# No constants are given. Whether binding was seen depends on the method and setting. Binding seen in cells or lysates may run through a third protein. Some binding calls cover weakened binding; strength is not graded here. Where a sequence is shown, tags or fusion partners need not be part of it.
# T1: FLAG-tagged Smek1 (human) (UniProt Q6IN85)
# T1 sequence: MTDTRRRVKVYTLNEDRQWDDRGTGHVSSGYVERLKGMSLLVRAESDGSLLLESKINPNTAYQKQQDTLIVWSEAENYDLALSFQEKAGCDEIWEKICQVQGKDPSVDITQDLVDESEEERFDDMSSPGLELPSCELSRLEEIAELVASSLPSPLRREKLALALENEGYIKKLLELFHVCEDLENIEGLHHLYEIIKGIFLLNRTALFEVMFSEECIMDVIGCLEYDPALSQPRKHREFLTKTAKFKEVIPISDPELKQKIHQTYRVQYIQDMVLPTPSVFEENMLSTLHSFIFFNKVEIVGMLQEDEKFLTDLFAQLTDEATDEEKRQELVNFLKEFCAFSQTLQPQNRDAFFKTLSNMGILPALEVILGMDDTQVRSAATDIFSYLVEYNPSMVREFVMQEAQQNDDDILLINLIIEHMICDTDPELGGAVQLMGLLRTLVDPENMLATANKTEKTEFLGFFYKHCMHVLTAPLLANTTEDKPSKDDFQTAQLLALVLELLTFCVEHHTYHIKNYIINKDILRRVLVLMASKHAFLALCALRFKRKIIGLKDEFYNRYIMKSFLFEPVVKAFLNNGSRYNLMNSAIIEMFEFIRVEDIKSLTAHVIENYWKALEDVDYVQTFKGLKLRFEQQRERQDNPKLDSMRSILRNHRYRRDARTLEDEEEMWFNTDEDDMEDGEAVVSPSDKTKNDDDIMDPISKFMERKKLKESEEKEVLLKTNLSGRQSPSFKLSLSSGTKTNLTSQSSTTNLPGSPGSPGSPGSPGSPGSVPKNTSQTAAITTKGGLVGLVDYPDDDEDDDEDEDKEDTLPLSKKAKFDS
# What was measured:
# [1] = biological target: T1, FLAG-tagged Smek1 (human); assay: co-immunoprecipitation from 293T cells, western blot
# [2] = biological target: T1, FLAG-tagged Smek1 (human); assay: reverse co-immunoprecipitation from 293T cells, western blot
# HA-tagged FOXO4 (AFX) = HA-tagged FOXO4 (AFX) (UniProt P98177); assay: co-immunoprecipitation from 293T cells, western blot
# HA-tagged FOXO3a (human) = HA-tagged FOXO3a (human) (UniProt O43524); assay: as above
molecule,measurement,setting,value
HA-tagged FOXO4 (AFX) (from UniProt P98177 1-505),binding,[1],binds
HA-tagged FOXO4-TM (from UniProt P98177 1-505),binding,[1],binds
HA-tagged FOXO3a (from UniProt O43524 1-673),binding,[2],binds
FLAG-tagged Smek1 (protein) MTDTRRRVKVYTLNEDRQWDDRGTGHVSSGYVERLKGMSLLVRAESDGSLLLESKINPNTAYQKQQDTLIVWSEAENYDLALSFQEKAGCDEIWEKICQVQGKDPSVDITQDLVDESEEERFDDMSSPGLELPSCELSRLEEIAELVASSLPSPLRREKLALALENEGYIKKLLELFHVCEDLENIEGLHHLYEIIKGIFLLNRTALFEVMFSEECIMDVIGCLEYDPALSQPRKHREFLTKTAKFKEVIPISDPELKQKIHQTYRVQYIQDMVLPTPSVFEENMLSTLHSFIFFNKVEIVGMLQEDEKFLTDLFAQLTDEATDEEKRQELVNFLKEFCAFSQTLQPQNRDAFFKTLSNMGILPALEVILGMDDTQVRSAATDIFSYLVEYNPSMVREFVMQEAQQNDDDILLINLIIEHMICDTDPELGGAVQLMGLLRTLVDPENMLATANKTEKTEFLGFFYKHCMHVLTAPLLANTTEDKPSKDDFQTAQLLALVLELLTFCVEHHTYHIKNYIINKDILRRVLVLMASKHAFLALCALRFKRKIIGLKDEFYNRYIMKSFLFEPVVKAFLNNGSRYNLMNSAIIEMFEFIRVEDIKSLTAHVIENYWKALEDVDYVQTFKGLKLRFEQQRERQDNPKLDSMRSILRNHRYRRDARTLEDEEEMWFNTDEDDMEDGEAVVSPSDKTKNDDDIMDPISKFMERKKLKESEEKEVLLKTNLSGRQSPSFKLSLSSGTKTNLTSQSSTTNLPGSPGSPGSPGSPGSPGSVPKNTSQTAAITTKGGLVGLVDYPDDDEDDDEDEDKEDTLPLSKKAKFDS,binding,HA-tagged FOXO4 (AFX),binds
same,binding,HA-tagged FOXO3a (human),binds
